In PMC7590160:
Results are given in words; binding and its absence hold for the method and conditions named. Binding seen in cells or lysates may run through a third protein. Some binding calls cover weakened binding; strength is not graded here.

Protein sequences, listed by entry. Tags and fused reporters are not part of them. Lines headed by an entry give the natural chain unless they say otherwise; changes in a name come on top. Chains listed by the source or under a name are the forms on record and can include a tag or linker.
UniProt Q8K3K8: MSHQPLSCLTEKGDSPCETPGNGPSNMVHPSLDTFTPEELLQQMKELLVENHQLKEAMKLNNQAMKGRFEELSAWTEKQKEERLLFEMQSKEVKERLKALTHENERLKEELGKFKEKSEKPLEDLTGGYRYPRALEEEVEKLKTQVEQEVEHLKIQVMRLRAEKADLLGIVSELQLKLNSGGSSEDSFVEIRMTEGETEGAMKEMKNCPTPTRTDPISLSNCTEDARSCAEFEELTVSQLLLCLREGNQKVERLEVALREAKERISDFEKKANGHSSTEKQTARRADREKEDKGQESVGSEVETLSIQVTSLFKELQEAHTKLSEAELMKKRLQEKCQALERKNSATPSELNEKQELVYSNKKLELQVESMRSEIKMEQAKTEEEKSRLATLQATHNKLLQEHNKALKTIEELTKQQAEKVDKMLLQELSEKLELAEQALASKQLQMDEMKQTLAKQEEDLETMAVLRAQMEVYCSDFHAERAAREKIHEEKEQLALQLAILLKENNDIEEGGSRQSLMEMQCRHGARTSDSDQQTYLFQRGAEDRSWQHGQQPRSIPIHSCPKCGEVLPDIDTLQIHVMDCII
UniProt P00441: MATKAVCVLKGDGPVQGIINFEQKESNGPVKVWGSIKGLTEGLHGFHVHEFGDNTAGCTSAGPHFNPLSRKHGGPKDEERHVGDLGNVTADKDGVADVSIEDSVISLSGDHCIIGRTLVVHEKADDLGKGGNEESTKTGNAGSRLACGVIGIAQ
mutant SOD1 A4V, FLAG-tagged (A4V-FLAG) (P00441, form named): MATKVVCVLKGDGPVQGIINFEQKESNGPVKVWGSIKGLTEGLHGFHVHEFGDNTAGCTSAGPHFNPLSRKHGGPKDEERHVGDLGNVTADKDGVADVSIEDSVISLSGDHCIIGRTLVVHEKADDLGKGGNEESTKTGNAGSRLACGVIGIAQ
mutant SOD1 G93A, FLAG-tagged (G93A-FLAG) (P00441, form named): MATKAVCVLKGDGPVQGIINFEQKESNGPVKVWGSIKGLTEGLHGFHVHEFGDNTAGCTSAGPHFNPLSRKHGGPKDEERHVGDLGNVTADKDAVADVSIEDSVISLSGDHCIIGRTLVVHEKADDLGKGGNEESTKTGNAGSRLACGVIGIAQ

Biological target: optineurin (endogenous, N2a cells) (mouse (endogenous in N2a)) (UniProt Q8K3K8)
Assay: co-IP; N2a cells 48 h after transfection; 1% NP-40 lysis buffer; extracts incubated with OPTN antibodies overnight at 4 °C, Protein G Sepharose beads; immunoblotted with FLAG antibodies

| Substance | binding |
| --- | --- |
| mutant SOD1 A4V, FLAG-tagged (A4V-FLAG) (from UniProt P00441 1-154) | binds |
| mutant SOD1 G93A, FLAG-tagged (G93A-FLAG) (from UniProt P00441 1-154) | binds |
| wild type superoxide dismutase 1, FLAG-tagged (SOD1-FLAG) (from UniProt P00441 1-154) | no binding |
